PubChem BioAssay AID743121 – NCATS, 2013
This is one part, drawn at random, of about 26,000 deposited reagents. In the full data, 167 (0.63%) got an active call. 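Calls are per gene from RSA p-values that are not deposited; an individual active-marked siRNA can sensitise only weakly.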 Reagents against one gene are numbered here.

Assay: 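Knock-downs that sensitise breast cancer cells to camptothecin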 (primary screen)
System: MDA-MB-231 cells, a human breast cancer line
Reagent: single siRNA against human genes, 20 nM siRNA (0.8 pmol per well)
Timing: 120 h (drug added 48 h after transfection, read 72 h later)
Challenge: camptothecin 20 nM (about EC30) for 72 h; vehicle 0.1% DMSO in parallel plates
Measurement: 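Cell viability by ATP luminescence (CellTiter-Glo) as % of non-targeting siRNA wells, and the log2 ratio of viability without drug over viability with camptothecin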
Direction: log2 vehicle/camptothecin viability: higher = stronger sensitisation to camptothecin; viability with camptothecin and viability without drug: higher = more viable cells
Hit rule: 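Each gene scored by redundant siRNA activity (RSA) over its individual siRNA ratios; a gene is called active at p < 0.001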

gene	reagent	log2 vehicle/camptothecin viability	viability with camptothecin (% of control)	viability without drug (% of control)	outcome
ACVRL1 (activin A receptor like type 1)	1	-0.146	96.4	87.1	inactive
ACVRL1 (activin A receptor like type 1)	2	-0.539	98.8	68	inactive
ACVRL1 (activin A receptor like type 1)	3	-0.0469	97.7	94.6	inactive
ACVRL1 (activin A receptor like type 1)	4	-0.283	63.4	52.2	inactive
USP4 (ubiquitin specific peptidase 4)	1	-0.0457	57	55.2	inactive
USP4 (ubiquitin specific peptidase 4)	2	-0.472	97.6	70.4	inactive
USP4 (ubiquitin specific peptidase 4)	3	-0.0659	71.5	68.3	inactive
USP4 (ubiquitin specific peptidase 4)	4	-0.156	118	106	inactive
TAS2R38 (taste 2 receptor member 38)	1	-0.305	114	92	inactive
TAS2R38 (taste 2 receptor member 38)	2	0.741	28.3	47.2	inactive
TAS2R38 (taste 2 receptor member 38)	3	-0.316	35.4	28.5	inactive
TAS2R38 (taste 2 receptor member 38)	4	-0.187	48.1	42.3	inactive
TAB3 (TGF-beta activated kinase 1 (MAP3K7) binding protein 3)	1	0.0826	95.2	101	inactive
TAB3 (TGF-beta activated kinase 1 (MAP3K7) binding protein 3)	2	-0.0956	95.3	89.2	inactive
TAB3 (TGF-beta activated kinase 1 (MAP3K7) binding protein 3)	3	-0.23	115	97.8	inactive
TAB3 (TGF-beta activated kinase 1 (MAP3K7) binding protein 3)	4	-0.247	119	100	inactive
CUL9 (cullin 9)	1	-0.0744	108	103	inactive
CUL9 (cullin 9)	2	0.186	99.8	113	inactive
CUL9 (cullin 9)	3	0.139	73.1	80.5	inactive
GRID1 (glutamate ionotropic receptor delta type subunit 1)	1	-0.0873	109	103	inactive
GRID1 (glutamate ionotropic receptor delta type subunit 1)	2	-0.2	110	95.9	inactive
GRID1 (glutamate ionotropic receptor delta type subunit 1)	3	-0.233	55.1	46.9	inactive
GRID1 (glutamate ionotropic receptor delta type subunit 1)	4	0.287	43.3	52.9	inactive
RPL27 (ribosomal protein L27)	1	-0.533	46	31.8	inactive
RPL27 (ribosomal protein L27)	2	-0.194	23.4	20.4	inactive
RPL27 (ribosomal protein L27)	3	-0.562	33	22.4	inactive
RPL27 (ribosomal protein L27)	4	-0.354	40.3	31.6	inactive
MC4R (melanocortin 4 receptor)	1	-0.491	110	78	inactive
MC4R (melanocortin 4 receptor)	2	0.546	81.6	119	inactive
MC4R (melanocortin 4 receptor)	3	0.164	79.6	89.2	inactive
MC4R (melanocortin 4 receptor)	4	-0.149	69.2	62.4	inactive
LHX5 (LIM homeobox 5)	1	-0.287	53.2	43.6	inactive
LHX5 (LIM homeobox 5)	2	-0.368	85	65.8	inactive
LHX5 (LIM homeobox 5)	3	-0.137	98.5	89.6	inactive
LHX5 (LIM homeobox 5)	4	-0.111	93.2	86.3	inactive
MYO18A (myosin XVIIIA)	1	-0.0758	47.8	45.3	inactive
MYO18A (myosin XVIIIA)	2	0.132	53.7	58.8	inactive
MYO18A (myosin XVIIIA)	3	-0.0853	80.9	76.3	inactive
RPA4 (replication protein A4)	1	-0.0935	71.6	67.1	inactive
RPA4 (replication protein A4)	2	-0.0708	98.1	93.4	inactive
RPA4 (replication protein A4)	3	-0.56	81.7	55.4	inactive
RPA4 (replication protein A4)	4	-0.0664	83.6	79.9	inactive

6 successive reagents already listed:
gene	reagent	log2 vehicle/camptothecin viability	viability with camptothecin (% of control)	viability without drug (% of control)	outcome
TAB3 (TGF-beta activated kinase 1 (MAP3K7) binding protein 3)	2	-0.0956	95.3	89.2	inactive
TAB3 (TGF-beta activated kinase 1 (MAP3K7) binding protein 3)	3	-0.23	115	97.8	inactive
TAB3 (TGF-beta activated kinase 1 (MAP3K7) binding protein 3)	4	-0.247	119	100	inactive
CUL9 (cullin 9)	1	-0.0744	108	103	inactive
CUL9 (cullin 9)	2	0.186	99.8	113	inactive
CUL9 (cullin 9)	3	0.139	73.1	80.5	inactive

Next reagents follow:
gene	reagent	log2 vehicle/camptothecin viability	viability with camptothecin (% of control)	viability without drug (% of control)	outcome
RACGAP1 (Rac GTPase activating protein 1)	1	-0.0404	60.7	59	inactive
RACGAP1 (Rac GTPase activating protein 1)	2	-0.134	63.4	57.7	inactive
RACGAP1 (Rac GTPase activating protein 1)	3	0.211	2.65	3.07	inactive
RACGAP1 (Rac GTPase activating protein 1)	4	-0.578	107	71.8	inactive
GPHB5 (glycoprotein hormone subunit beta 5)	1	0.0768	64.2	67.7	inactive
GPHB5 (glycoprotein hormone subunit beta 5)	2	0.194	46.9	53.7	inactive
GPHB5 (glycoprotein hormone subunit beta 5)	3	0.149	71.2	79	inactive
GPHB5 (glycoprotein hormone subunit beta 5)	4	-0.0244	99	97.3	inactive
ESRRA (estrogen related receptor alpha)	1	-0.173	97.4	86.4	inactive
ESRRA (estrogen related receptor alpha)	2	-0.433	51	37.8	inactive
ESRRA (estrogen related receptor alpha)	3	-0.461	95.2	69.2	inactive
ESRRA (estrogen related receptor alpha)	4	-0.477	65.1	46.8	inactive
LYPD1 (LY6/PLAUR domain containing 1)	1	0.107	109	117	inactive
LYPD1 (LY6/PLAUR domain containing 1)	2	0.449	45.9	62.7	inactive
LYPD1 (LY6/PLAUR domain containing 1)	3	0.112	90.5	97.9	inactive
GABRA6 (gamma-aminobutyric acid type A receptor subunit alpha6)	1	-0.0617	112	107	inactive
GABRA6 (gamma-aminobutyric acid type A receptor subunit alpha6)	2	0.0292	66.4	67.7	inactive
GABRA6 (gamma-aminobutyric acid type A receptor subunit alpha6)	3	-0.173	67.1	59.5	inactive
GABRA6 (gamma-aminobutyric acid type A receptor subunit alpha6)	4	-0.0176	61.7	60.9	inactive
TBCEL (tubulin folding cofactor E like)	1	-0.242	111	93.6	inactive
TBCEL (tubulin folding cofactor E like)	2	-0.335	73.5	58.3	inactive
TBCEL (tubulin folding cofactor E like)	3	-0.0242	98.1	96.4	inactive
TBCEL (tubulin folding cofactor E like)	4	-0.243	28.8	24.3	inactive
RPSA2 (ribosomal protein SA 2)	1	0.203	57	65.6	inactive
RPSA2 (ribosomal protein SA 2)	2	0.151	36.7	40.7	inactive
RPSA2 (ribosomal protein SA 2)	3	0.326	30.7	38.4	inactive
RPSA2 (ribosomal protein SA 2)	4	-0.131	104	95.3	inactive
